Some results were stated once for a whole list of compounds, not compound by compound. For at least one compound, name, drawing or mass did not settle the structure.
Experiments:
Plasma Stability Assay = type: in vitro ADME, Human
Experimental: CBD methyl ether and CBD difluoromethyl ether were synthesized using a synthetic protocol described above and the identities of the desired ether products were confirmed by nuclear magnetic resonance spectroscopy as well as HPLC-MS. CBD methyl and/or CBD difluoromethyl ethers were incubated in individual eppendorf tubes in the following mediums: (a) simulated gastric fluid (SGF) with and without pepsin; (b) microsomal extract; (c) S9 fraction (hepatic); (d) Plasma; (e) Teorell-Stenhagen Buffer at pH 3.5, 4.5, 5.5, 6.5, 7.5, and 8.5; and (f) simulated intestinal fluid (SIF) with and without pancreatin. Each incubation mixture contained up to 0.5% of an organic solvent. DMSO is the organic solvent when SGF and Teorell-Stenhagen Buffer was used and acetonitrile is the organic solvent for incubation mixtures in microsomal extract, S9 fraction, and plasma. […]
Stability studies were performed by incubating CBD methyl ether and/or CBD difluoromethyl ether at 37 ° C. in the desired medium. […] The ethyl acetate layer was evaporated using a stream of nitrogen gas and the resulting residue was dissolved in 1:1 mixture of 0.1% aqueous HOAc and acetonitrile and analyzed by reverse-phase HPLC-MS.
The methyl and difluoromethyl ethers of CBD were stable to degradation in plasma. The half-life of degradation as measured by LC-MS for both ethers was greater than 400 minutes.

[1] = Stability in simulated gastric fluid (SGF) with and without pepsin and simulated intestinal fluid (SIF) with and without pancreatin

Row | Molecule | half-life of degradation in plasma as measured by LC-MS (Plasma Stability Assay) | half-life of de-etherification (conversion of CBD ether prodrug to CBD) [1]
1 | C=C(C)[C@@H]1CCC(C)=C[C@H]1c1c(O)cc(CCCCC)cc1OC [CBD Methyl Ether, CBD methyl ether] | greater than 400 minutes | greater than 400 min
2 | CBD difluoromethyl ether | greater than 400 minutes | greater than 400 min

From patent US20190345087A1, “BIO-STABLE C[…] AND METHODS FOR ENHANCING THEIR PHYSIOLOGICAL CONCENTRATION” (Teewinot Technologies Limited, priority 2016, published 2019)
